Three substances from PMC10371097 can be followed below.

Amino acid sequences for entries named in this document (tags omitted).
UniProt P35637: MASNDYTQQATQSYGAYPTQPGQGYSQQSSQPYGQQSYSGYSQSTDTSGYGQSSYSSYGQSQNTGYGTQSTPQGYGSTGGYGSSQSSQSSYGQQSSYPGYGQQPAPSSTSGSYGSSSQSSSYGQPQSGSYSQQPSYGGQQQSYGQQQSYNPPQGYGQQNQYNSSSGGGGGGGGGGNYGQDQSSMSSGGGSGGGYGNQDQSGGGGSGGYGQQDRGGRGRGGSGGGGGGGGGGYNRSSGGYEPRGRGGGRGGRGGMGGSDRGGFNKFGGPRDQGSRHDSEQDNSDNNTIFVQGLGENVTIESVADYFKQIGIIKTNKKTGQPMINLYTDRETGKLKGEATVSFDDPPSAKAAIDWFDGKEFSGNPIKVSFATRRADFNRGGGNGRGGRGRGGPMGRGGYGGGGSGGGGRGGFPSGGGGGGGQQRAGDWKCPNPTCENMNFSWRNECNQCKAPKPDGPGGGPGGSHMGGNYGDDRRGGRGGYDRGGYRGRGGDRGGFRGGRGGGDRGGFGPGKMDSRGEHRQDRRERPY
UniProt O14744: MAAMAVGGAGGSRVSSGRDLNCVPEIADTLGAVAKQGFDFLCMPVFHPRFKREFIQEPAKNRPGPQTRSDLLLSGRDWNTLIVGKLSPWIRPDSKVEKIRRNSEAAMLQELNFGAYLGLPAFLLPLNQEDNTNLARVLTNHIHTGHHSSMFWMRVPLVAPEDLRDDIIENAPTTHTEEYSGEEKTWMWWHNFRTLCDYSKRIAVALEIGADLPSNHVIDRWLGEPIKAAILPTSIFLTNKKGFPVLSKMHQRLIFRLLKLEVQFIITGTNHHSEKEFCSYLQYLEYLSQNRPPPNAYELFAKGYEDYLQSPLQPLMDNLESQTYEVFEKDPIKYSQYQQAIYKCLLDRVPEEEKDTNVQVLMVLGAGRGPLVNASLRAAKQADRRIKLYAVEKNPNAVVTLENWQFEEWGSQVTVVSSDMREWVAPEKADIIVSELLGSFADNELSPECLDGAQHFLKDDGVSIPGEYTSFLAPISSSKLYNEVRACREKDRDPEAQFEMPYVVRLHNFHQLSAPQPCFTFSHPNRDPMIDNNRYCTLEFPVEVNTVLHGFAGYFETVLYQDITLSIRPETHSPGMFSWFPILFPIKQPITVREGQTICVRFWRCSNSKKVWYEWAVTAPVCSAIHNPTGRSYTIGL
UniProt Q9BQA1: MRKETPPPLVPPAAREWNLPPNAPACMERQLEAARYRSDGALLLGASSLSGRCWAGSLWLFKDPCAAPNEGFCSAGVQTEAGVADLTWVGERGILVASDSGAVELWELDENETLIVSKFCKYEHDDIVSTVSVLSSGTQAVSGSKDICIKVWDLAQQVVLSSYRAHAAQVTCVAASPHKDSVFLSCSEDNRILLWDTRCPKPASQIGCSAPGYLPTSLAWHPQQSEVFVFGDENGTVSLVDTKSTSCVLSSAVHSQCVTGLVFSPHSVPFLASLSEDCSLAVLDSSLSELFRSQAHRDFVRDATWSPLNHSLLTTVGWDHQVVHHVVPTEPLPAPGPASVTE

Assay [1] has as its target fused in sarcoma (FUS) (human (endogenous in MCF-7)) (UniProt P35637). Nature of the assay: co-IP; MCF-7_RBKO lysates (NP-40 lysis buffer: 20 mM Tris-HCl pH 7.6, 150 mM NaCl, 0.1% NP-40, 1 mM EDTA) with a PRMT5 or a FUS antibody or control IgG overnight at 4°C, protein-G Dyna beads, immunoblot; in Fig. 4H cells treated with DMSO or 500 nM pemrametostat for three days before the FUS co-IP. On the technique in general: Immunoblotting shows a protein as a band on a membrane.

In assay [2] the target is protein arginine methyltransferase 5 (PRMT5) (human (endogenous in MCF-7)) (UniProt O14744). The assay is described as above.

These are yes or no findings as the source states them, for the method shown. Binding seen in cells or lysates may run through a third protein. Some results given as binding are weak or reduced against the parent protein; the word gives no strength.

In the case of “MEP50 (also known as WDR77) (from UniProt Q9BQA1 1-342)”, the binding result in assay [1] is recorded as “binds”.

For the substance “fused in sarcoma (FUS) (from UniProt P35637 1-526)”, the binding entry in assay [2] is “binds”.

On to “protein arginine methyltransferase 5 (PRMT5) (from UniProt O14744 1-637) (enzyme)”, for which, in assay [1], the binding entry is on record as “binds”.
